Measurements published in publication PMC11067147.
These are yes or no findings as the source states them, for the method shown. Binding seen in cells or lysates may run through a third protein. These calls come from enrichment with a bait or labelling near it, and not all partners need be listed.

Protein sequences, listed by entry. Tags and fused reporters are not part of them.
UniProt Q7Z406: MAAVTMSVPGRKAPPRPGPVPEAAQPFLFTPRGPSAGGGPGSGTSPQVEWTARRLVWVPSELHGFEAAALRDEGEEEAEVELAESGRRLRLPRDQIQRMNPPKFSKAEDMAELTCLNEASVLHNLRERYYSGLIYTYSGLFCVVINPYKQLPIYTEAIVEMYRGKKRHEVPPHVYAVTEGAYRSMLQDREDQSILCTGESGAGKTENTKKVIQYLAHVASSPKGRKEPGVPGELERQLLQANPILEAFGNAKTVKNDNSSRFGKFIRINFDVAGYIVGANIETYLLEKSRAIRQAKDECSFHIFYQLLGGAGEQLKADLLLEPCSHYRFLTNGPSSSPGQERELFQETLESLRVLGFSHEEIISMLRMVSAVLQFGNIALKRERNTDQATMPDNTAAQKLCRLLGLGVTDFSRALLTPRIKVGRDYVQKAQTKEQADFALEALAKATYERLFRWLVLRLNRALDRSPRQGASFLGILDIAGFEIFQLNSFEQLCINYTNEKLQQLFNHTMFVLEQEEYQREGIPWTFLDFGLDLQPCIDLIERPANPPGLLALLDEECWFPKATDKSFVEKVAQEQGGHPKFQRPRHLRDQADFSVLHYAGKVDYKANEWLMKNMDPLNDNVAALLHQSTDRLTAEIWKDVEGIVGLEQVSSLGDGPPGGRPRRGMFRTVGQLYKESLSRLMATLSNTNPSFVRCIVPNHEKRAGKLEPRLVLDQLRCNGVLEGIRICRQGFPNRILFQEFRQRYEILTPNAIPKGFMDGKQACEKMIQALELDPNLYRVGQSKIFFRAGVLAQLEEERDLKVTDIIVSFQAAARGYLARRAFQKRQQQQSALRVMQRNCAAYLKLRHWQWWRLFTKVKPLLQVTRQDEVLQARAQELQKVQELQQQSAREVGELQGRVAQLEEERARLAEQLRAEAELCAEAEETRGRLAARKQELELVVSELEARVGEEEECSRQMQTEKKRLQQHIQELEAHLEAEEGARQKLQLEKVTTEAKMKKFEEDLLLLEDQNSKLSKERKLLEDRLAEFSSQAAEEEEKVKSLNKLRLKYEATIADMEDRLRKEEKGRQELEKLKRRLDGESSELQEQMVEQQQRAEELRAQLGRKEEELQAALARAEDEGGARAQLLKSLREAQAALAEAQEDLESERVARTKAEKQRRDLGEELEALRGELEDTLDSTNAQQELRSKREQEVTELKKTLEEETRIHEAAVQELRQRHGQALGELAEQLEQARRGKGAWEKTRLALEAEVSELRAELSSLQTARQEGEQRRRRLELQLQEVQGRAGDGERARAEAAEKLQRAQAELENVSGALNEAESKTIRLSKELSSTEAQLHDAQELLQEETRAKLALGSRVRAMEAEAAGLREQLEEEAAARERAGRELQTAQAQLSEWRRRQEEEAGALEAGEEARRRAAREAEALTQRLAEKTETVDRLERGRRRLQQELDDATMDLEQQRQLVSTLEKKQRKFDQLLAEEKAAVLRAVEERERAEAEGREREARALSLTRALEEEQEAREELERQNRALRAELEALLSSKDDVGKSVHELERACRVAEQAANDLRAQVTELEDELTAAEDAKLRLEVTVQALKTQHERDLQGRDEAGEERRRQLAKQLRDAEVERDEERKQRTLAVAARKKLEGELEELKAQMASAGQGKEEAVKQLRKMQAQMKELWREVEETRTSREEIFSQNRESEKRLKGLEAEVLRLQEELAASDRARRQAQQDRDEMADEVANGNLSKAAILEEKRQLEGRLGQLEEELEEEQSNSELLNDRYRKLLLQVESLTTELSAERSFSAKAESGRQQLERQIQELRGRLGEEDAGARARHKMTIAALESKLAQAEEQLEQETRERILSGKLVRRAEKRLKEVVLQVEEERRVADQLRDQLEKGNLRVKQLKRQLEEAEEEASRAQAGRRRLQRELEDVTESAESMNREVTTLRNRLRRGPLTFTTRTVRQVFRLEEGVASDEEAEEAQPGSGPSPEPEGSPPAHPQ
UniProt P35579: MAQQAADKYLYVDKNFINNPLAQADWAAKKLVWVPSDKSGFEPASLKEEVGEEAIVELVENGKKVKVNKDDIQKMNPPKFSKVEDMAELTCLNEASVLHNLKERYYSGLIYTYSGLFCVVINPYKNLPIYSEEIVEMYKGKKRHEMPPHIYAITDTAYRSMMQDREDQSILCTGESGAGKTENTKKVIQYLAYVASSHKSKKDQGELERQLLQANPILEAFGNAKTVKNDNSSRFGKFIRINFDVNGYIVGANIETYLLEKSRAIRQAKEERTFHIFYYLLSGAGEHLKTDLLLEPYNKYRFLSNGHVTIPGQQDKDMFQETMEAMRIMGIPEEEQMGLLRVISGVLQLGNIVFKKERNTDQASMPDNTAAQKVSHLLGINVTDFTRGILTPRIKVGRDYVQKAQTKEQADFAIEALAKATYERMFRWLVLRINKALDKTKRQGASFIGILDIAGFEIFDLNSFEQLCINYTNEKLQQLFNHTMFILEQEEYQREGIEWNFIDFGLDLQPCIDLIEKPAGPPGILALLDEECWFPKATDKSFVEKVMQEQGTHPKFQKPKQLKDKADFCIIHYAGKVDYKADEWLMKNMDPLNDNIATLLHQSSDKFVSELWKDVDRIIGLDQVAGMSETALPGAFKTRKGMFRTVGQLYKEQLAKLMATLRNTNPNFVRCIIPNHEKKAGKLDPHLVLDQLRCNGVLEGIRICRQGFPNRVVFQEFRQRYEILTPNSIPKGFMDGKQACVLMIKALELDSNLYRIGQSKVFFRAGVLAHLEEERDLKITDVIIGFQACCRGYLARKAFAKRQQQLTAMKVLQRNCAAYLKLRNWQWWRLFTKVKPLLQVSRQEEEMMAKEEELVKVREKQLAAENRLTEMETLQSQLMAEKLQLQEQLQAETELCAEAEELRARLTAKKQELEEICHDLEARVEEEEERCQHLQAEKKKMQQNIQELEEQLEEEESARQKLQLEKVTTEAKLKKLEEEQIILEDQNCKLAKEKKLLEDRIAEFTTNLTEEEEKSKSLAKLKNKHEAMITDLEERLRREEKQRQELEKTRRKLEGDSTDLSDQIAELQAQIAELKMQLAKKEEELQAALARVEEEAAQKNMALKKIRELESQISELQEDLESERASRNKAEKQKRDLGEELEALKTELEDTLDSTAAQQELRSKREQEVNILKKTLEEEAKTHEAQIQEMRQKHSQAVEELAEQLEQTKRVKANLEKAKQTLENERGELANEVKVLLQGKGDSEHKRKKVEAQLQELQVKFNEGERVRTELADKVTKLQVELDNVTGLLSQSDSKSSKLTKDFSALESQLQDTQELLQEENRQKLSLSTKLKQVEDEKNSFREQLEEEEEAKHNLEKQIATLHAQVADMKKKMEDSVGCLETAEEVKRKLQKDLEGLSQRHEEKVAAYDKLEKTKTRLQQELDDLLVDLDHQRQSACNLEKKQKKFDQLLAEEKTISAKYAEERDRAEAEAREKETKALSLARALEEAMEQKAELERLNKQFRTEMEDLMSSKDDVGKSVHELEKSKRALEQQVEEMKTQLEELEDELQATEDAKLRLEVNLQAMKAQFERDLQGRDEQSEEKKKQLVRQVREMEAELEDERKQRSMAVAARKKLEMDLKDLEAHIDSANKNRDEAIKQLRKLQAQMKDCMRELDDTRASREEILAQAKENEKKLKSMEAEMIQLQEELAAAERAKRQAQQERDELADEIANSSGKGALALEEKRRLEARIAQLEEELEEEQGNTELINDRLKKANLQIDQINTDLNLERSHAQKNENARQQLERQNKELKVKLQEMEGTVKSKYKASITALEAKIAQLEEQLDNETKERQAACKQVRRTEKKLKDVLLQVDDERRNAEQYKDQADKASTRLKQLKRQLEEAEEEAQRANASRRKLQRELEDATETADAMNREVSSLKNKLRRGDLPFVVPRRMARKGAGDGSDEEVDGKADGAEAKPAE

Target: MYH14 (human (endogenous in Ishikawa and KLE)) (UniProt Q7Z406)
Assay: affinity purification with mass spectrometry; Pierce Co-IP kit, antibody covalently coupled to amine-reactive resin; 5 mg protein of EC cell lysate, overnight at 4 °C; eluate analysed by silver staining and mass spectrometry

binding: binds
Substance: MYH9 (from UniProt P35579 1-1960)
